According to the supplement of paper PMC12067093, “Discovery and optimisation of a covalent ligand for TRIM25 and its application to targeted protein ubiquitination” (Chemical Science, 2025):
Some of the results follow.

By UniProt entry, the sequences of proteins in these tests, tags left out. Where a name states a change or a piece, a line headed by the entry shows the natural chain unless it says otherwise.
UniProt Q9H6K1: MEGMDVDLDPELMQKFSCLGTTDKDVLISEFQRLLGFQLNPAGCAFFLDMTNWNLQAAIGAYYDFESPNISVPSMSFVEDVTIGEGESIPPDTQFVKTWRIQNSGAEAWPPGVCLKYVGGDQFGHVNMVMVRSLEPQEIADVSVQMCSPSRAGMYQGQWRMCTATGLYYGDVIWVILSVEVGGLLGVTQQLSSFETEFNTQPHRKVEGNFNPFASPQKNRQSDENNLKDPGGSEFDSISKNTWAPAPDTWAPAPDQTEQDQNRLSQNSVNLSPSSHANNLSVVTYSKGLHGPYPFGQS
UniProt Q06187: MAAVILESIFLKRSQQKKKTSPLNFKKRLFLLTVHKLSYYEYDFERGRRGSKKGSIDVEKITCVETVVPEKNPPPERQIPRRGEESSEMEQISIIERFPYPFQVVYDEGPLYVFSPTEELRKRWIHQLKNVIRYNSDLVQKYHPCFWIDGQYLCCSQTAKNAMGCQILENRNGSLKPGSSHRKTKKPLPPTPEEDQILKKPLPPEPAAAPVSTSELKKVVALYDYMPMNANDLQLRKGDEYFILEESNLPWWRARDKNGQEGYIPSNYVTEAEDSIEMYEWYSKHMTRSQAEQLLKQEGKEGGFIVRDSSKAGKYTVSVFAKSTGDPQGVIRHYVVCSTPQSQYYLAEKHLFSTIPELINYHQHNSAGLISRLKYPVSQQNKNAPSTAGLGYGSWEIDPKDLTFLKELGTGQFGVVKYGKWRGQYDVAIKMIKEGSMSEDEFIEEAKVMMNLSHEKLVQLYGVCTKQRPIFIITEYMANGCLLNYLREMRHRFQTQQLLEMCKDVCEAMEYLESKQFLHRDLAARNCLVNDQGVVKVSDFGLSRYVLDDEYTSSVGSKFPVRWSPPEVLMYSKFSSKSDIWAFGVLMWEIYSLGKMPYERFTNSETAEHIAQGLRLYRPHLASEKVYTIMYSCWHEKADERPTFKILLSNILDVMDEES
UniProt Q9BX70: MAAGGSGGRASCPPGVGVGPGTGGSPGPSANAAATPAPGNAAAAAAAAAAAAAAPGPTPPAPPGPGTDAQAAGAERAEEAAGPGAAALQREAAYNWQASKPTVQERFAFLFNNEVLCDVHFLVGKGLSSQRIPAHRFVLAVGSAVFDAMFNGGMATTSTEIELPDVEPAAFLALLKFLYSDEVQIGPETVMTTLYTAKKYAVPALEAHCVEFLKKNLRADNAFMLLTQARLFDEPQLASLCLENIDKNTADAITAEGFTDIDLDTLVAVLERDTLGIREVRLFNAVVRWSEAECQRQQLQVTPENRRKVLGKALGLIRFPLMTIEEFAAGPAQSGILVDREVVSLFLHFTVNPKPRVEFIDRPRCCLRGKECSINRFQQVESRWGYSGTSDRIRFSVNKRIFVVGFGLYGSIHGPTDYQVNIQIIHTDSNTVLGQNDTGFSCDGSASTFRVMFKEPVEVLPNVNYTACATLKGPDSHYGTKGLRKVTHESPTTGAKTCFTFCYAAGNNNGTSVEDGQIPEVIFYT
UniProt Q86VP6: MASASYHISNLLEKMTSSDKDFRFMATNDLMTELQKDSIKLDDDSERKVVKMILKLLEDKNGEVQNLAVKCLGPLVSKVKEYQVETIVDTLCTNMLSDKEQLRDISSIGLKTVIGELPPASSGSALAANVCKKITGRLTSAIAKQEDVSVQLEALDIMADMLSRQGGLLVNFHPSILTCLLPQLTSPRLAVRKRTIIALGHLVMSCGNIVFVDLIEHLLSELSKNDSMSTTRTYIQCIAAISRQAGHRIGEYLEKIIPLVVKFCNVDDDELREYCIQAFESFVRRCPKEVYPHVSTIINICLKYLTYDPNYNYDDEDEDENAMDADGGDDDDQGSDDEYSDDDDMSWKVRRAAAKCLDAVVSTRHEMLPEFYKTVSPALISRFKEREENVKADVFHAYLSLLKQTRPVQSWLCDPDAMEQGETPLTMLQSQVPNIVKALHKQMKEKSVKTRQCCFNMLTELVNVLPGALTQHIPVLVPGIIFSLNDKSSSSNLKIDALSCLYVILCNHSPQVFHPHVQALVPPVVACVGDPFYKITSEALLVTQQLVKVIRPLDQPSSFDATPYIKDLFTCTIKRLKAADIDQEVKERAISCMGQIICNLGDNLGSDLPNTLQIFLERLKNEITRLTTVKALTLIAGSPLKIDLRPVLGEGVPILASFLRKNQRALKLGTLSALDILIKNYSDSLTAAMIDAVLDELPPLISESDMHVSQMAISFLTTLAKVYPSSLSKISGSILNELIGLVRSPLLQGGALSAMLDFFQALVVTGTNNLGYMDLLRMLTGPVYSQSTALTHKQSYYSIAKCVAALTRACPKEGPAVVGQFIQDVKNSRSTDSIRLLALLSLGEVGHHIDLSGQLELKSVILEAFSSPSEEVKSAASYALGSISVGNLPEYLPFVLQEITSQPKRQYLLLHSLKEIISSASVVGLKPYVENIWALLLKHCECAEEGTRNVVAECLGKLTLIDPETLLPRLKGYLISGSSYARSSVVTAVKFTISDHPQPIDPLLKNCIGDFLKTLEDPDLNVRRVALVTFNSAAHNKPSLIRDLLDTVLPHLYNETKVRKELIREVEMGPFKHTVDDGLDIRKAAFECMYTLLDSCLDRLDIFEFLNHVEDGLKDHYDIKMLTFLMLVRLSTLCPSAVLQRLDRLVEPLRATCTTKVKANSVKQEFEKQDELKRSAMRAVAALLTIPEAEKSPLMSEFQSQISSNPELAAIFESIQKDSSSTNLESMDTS
UniProt O14981: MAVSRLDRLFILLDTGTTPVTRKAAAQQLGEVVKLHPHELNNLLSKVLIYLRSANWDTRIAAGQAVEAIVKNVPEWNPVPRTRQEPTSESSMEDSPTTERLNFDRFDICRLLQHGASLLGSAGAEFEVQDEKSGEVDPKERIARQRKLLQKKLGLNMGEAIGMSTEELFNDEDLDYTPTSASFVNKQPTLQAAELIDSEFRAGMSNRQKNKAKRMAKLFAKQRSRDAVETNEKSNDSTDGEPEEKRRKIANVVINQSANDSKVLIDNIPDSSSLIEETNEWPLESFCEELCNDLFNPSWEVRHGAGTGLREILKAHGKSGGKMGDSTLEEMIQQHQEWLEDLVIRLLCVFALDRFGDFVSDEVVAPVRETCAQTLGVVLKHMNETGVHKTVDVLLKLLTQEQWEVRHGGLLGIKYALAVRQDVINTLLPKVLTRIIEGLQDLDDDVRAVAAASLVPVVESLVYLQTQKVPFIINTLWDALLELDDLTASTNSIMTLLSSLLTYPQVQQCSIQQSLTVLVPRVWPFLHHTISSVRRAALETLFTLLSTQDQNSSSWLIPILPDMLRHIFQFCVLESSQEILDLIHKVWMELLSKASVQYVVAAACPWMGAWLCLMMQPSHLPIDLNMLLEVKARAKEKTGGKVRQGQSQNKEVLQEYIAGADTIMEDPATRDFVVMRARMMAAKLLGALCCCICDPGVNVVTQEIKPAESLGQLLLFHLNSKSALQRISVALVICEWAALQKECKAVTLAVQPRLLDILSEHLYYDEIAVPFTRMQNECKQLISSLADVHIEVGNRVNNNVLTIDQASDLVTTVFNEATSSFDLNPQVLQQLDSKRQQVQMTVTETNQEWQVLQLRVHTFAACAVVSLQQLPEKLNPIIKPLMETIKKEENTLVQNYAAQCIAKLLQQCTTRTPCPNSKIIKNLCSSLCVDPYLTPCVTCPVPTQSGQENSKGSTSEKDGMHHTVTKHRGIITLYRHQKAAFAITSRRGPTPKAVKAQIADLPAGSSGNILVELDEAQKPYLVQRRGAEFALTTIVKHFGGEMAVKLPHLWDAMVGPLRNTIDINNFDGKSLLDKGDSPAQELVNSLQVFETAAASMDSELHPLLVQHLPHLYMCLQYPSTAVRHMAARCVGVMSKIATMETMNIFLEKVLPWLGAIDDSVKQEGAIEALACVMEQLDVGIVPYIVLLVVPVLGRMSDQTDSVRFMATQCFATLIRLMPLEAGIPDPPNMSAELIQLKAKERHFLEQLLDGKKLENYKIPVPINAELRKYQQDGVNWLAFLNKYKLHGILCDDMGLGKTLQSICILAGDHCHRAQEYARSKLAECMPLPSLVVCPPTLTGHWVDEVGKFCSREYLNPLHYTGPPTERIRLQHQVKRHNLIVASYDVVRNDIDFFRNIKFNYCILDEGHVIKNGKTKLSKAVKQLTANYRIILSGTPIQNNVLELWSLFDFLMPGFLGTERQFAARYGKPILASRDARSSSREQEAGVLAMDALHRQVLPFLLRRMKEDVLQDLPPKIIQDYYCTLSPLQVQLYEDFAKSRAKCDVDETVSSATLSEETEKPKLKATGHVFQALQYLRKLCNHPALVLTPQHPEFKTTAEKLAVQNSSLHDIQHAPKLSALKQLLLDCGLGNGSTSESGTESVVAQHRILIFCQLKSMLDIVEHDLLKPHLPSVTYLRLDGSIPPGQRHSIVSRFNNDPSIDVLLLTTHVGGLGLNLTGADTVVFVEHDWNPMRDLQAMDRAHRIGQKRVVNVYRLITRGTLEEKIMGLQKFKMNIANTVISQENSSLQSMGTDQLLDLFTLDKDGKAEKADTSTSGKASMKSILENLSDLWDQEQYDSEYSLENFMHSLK
UniProt O14523: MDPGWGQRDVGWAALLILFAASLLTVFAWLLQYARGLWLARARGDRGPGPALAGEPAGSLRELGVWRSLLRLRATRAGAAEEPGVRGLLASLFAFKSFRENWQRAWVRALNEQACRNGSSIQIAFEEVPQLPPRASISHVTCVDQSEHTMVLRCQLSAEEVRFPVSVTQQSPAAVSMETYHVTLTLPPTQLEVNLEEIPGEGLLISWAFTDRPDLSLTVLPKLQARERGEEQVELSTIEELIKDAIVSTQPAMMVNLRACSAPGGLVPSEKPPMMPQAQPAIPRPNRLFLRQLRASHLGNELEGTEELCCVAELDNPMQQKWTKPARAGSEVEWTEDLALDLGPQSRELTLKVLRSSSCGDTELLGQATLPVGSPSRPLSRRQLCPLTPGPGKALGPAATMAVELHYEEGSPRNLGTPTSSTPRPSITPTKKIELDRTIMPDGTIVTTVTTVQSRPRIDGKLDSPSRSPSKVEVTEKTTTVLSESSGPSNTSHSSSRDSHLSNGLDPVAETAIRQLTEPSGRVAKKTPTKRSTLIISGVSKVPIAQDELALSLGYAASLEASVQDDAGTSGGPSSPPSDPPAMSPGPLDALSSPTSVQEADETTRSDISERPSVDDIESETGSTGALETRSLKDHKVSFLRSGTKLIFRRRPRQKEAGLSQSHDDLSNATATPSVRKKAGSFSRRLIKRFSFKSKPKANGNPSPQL
UniProt Q8N999, whole entry, looked up: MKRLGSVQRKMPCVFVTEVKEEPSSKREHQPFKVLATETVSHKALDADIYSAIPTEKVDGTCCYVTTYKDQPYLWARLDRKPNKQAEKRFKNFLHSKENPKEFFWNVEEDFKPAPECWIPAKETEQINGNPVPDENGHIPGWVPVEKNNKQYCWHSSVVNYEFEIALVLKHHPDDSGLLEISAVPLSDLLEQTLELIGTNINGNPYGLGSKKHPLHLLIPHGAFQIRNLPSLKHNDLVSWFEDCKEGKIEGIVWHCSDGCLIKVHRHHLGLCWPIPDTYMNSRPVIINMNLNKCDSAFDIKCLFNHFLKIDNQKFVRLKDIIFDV

Compound: Cc1cc(ccc1-c1ccccc1)C(=O)N1CCCN(CC1)C(=O)CCl [compound 10]
Assay: probe-labelled cysteine peptide fold change vs DMSO (competition) (log2 fold change); higher = less target engagement (more negative = stronger competition)
Details: THP-1, incubation time: 4 h
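Further: competitive profiling in live THP-1 cells: cysteine peptides tagged with an iodoacetamide desthiobiotin (IA-DTB) probe, intensity after compound treatment relative to DMSO-treated cells.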

Row | Target | probe-labelled cysteine peptide fold change (10 µM) | probe-labelled cysteine peptide fold change (50 µM)
1 | C16orf62_Q7Z3J2_20_AEFASCR (UniProt Q7Z3J2) | -0.12 | -0.0888
2 | C7orf50_Q9BRJ6_107_SGAELALDYLCR (UniProt Q9BRJ6) | 0.126 | 0.192
3 | C6orf106_Q9H6K1_18_FSCLGTTDK (UniProt Q9H6K1) | -0.07 | -0.525
4 | C2CD5_Q86YS7_243_AIGTACTLDK (UniProt Q86YS7) | -0.17 | -0.205
5 | BTK_Q06187_154_YHPCFWIDGQYLCCSQTAK (UniProt Q06187) | -0.033 | -0.0952
6 | BTBD2_Q9BX70_241_LFDEPQLASLCLENIDK (UniProt Q9BX70) | -0.0428 | -0.00716
7 | BUD31_P41223_102_QGYENLCCLR (UniProt P41223) | 0.0475 | -0.158
8 | C11orf68_Q9H3H3_263_WHLCPTLYESR (UniProt Q9H3H3) | -0.0216 | -0.2
9 | BRIP1_Q9BX63_310_SCYFYHGVHK (UniProt Q9BX63) | 0.0582 | -0.182
10 | CAMSAP1_Q5T5Y3_947_EYSQHNGEDCGDAVSK (UniProt Q5T5Y3) | -0.0676 | -0.29
11 | CAND1_Q86VP6_1153_ATCTTK (UniProt Q86VP6) | -0.229 | -0.122
12 | CAMKK1_Q8N5S9_351_CPFIDDFILALHR (UniProt Q8N5S9) | 0.369 | -0.0797
13 | BRCC3_P46736_240_ILCQEEQDAYR (UniProt P46736) | -0.203 | 0.187
14 | BTBD2_Q9BX70_294_WSEAECQR (UniProt Q9BX70) | -0.108 | -0.101
15 | BUB1B_O60566_700_CLQIPEK (UniProt O60566) | 0.325 | 0.341
16 | BTAF1_O14981_371_ETCAQTLGVVLK (UniProt O14981) | 0.267 | -0.0208
17 | C5orf22_Q49AR2_195_LALEDSENTASTNCDSSSEGLEK (UniProt Q49AR2) | -0.0556 | 0.0623
18 | C2CD2L_O14523_385_RQLCPLTPGPGK (UniProt O14523) | 0.0512 | 0.00256
19 | CAND2_O75155_945_CEGAEEGTR (UniProt O75155) | -0.0262 | 0.0461
20 | C2CD2L_O14523_359_SSSCGDTELLGQATLPVGSPSRPLSR (UniProt O14523) | 0.123 | -0.171

Single entries from the results shown.
Value for CAND2_O75155_945_CEGAEEGTR (UniProt O75155) under probe-labelled cysteine peptide fold change (10 µM): -0.0262
Value for BTK_Q06187_154_YHPCFWIDGQYLCCSQTAK (UniProt Q06187) under probe-labelled cysteine peptide fold change (10 µM): -0.033

(list continues)

Row | Target | probe-labelled cysteine peptide fold change (10 µM) | probe-labelled cysteine peptide fold change (50 µM)
21 | CAD_P27708_1529_CDFALFLGASSENAGTLGTVAGSAAGLK (UniProt P27708) | 0.102 | 0.0688
22 | CAND1_Q86VP6_179_QGGLLVNFHPSILTCLLPQLTSPR (UniProt Q86VP6) | 0.326 | 0.182
23 | BTK_Q06187_63_ITCVETVVPEK (UniProt Q06187) | -0.182 | 0.117
24 | BTAF1_O14981_1579_LCNHPALVLTPQHPEFK (UniProt O14981) | 0.0545 | 0.332
25 | BRD1_O95696_199_ESHCENQK (UniProt O95696) | -0.126 | -0.432
26 | CALR_P27797_137_LFPNSLDQTDMHGDSEYNIMFGPDICGPGTKK (UniProt P27797) | -0.0987 | -0.353
27 | BRF1_Q92994_229_RPSGLCGAALLVAAR (UniProt Q92994) | -0.209 | -0.228
28 | C11orf54_Q9H0W9_154_CHDFQCALLANLFASEGQPGK (UniProt Q9H0W9) | -0.0884 | -0.214
29 | C12orf29_Q8N999_117_EFFWNVEEDFKPAPECWIPAK (UniProt Q8N999) | -0.0646 | -0.183
30 | CAD_P27708_1296_CEAYLK (UniProt P27708) | -0.127 | -0.216
31 | BSDC1_Q9NW68_49_DLTEFTQVVQHDTACTIAATASVVK (UniProt Q9NW68) | -0.0355 | -0.788
32 | CAD_P27708_736_NSVTGGTAAFEPSVDYCVVK (UniProt P27708) | 0.156 | 0.0229
33 | C17orf53_Q8N3J3_209_VVDLSGSCQK (UniProt Q8N3J3) | -0.102 | -0.152
34 | CAP1_Q01518_375_INSITVDNCK (UniProt Q01518) | 0.0698 | 0.28
35 | BRCA2_P51587_1399_AQEACHGNTSNK (UniProt P51587) | -0.233 | -0.571
36 | BST1_Q10588_271+280_LLQCVDHSTHPDCALK (UniProt Q10588) | -0.384 | -0.195
37 | C16orf62_Q7Z3J2_214_IVIQCSK (UniProt Q7Z3J2) | 0.0821 | -0.081
38 | BRWD3_Q6RI45_1147_DEECER (UniProt Q6RI45) | 0.179 | 0.381
39 | CANX_P27824_160_LNKPFLFDTKPLIVQYEVNFQNGIECGGAYVK (UniProt P27824) | -0.125 | -0.0963
